Assay results as given in PubChem BioAssay AID540256 (National Center for Advancing Translational Sciences (NCATS), 2011).
The whole screen tested about 300,000 compounds, of which about 3,700 (1.2%) were called active. Inconclusive means that the source gave no clear call. Such entries were picked first, then a sample of the others. The call rests on the fitted dose curve; tested in HEK293 cells. A potency beside an inconclusive call is a rough fit, not a confirmed value.

Experiment: qHTS for Inhibitors of binding or entry into cells for Lassa Virus; further: nearly all actives have a fitted effect of over 50% in size
Settings: Lassa virus pseudotype entry inhibition, cell reporter; series mostly up to 37.9 µM
Potency means the concentration at half of the fitted maximal effect.

Structure (SMILES)	Potency
CC(C)CC(=O)Nc1ccc(-c2nc3ccccc3c(=O)[nH]2)cc1	inconclusive: 11.2 µM [inhibitor, partial curve, poor fit]
O=c1c(-c2ccc(O)cc2)coc2cc(O)cc(O)c12	inconclusive: 20.6 µM [inhibitor, partial curve, poor fit]
Cc1cnccc1CN(C)Cc1nc(Cc2ccccc2Cl)no1	inconclusive: 35.5 µM [inhibitor, single point]
CN(C(=O)CSc1nc2ccc(NC(=O)c3ccc(F)cc3)cc2s1)c1ccccc1	inconclusive: 35.5 µM [inhibitor, single point]
CCOC(=O)C1(CCOc2ccccc2)CCN(Cc2cccn2-c2ncccn2)CC1	inconclusive: 15.8 µM [inhibitor, single point]
CC(=O)c1cc(C#N)c(N2CCCC2)nc1C	inactive
CCC(=O)Nc1ccccc1Sc1ncnc2scc(-c3ccccc3)c12	inconclusive: 6.51 µM [inhibitor, single point]
Cc1ccc(NC(=O)c2ccc(-c3nn(C)c(=O)c4ccccc34)cc2)c(C)c1	inactive
COc1ccccc1Cn1c(CNS(=O)(=O)c2c(C)cc(C)cc2C)nc2cccnc21	inconclusive: 35.5 µM [inhibitor, single point]
CCOc1ccc(-c2csc(NC(=O)c3ccc(S(=O)(=O)N4CCc5ccccc5C4)cc3)n2)cc1	inactive
Cc1ccc2c(c1)N(CC(=O)NCc1cccc(Cl)c1)C(=O)c1cccnc1O2	inconclusive: 35.5 µM [inhibitor, single point]
O=C(Nc1cccc(Cl)c1)Nc1ccccc1NS(=O)(=O)c1cccs1	inconclusive: 4.47 µM [inhibitor, single point]
c1ccc(-c2nc3c4ccccc4ccn3c2CN2CCCCC2)cc1	inactive
O=C(Nc1ccnn1C1CCN(C(=O)c2ccccc2C(F)(F)F)CC1)C1CC1	inconclusive: 0.891 µM [activator, single point]
CCCCn1c(N)c(N(CCOC)C(=O)COC(=O)C(C)(C)Oc2ccc(Cl)cc2)c(=O)[nH]c1=O	inconclusive: 5.62 µM [inhibitor, single point]
CC(Oc1ccc(Cl)cc1Cl)C(=O)Nc1ccc2oc(-c3ccncc3)nc2c1 (configuration not stated)	inconclusive: 29.1 µM [inhibitor, single point]
CC(=Nc1ccc2c(c1)CCC2)c1c(O)n(-c2ccccc2)c(=O)[nH]c1=O	inconclusive: 31.6 µM [inhibitor, single point]
Cc1cccc(-n2ncc3c(NCc4ccc5c(c4)OCO5)ncnc32)c1	inactive
O=S(=O)(c1ccc(Cl)cc1)N1CCN(CCc2ccncc2)CC1	inconclusive: 3.55 µM [inhibitor, partial curve, poor fit]
Nc1cc2c(cc1Br)[nH]c(=O)c1ccccc12	inconclusive: 10 µM [inhibitor, single point]
O=C(CN1CCN(Cc2ccc(Cl)cc2)CC1)N/N=C/c1c[nH]c2ccccc12	inconclusive: 35.5 µM [inhibitor, single point]

Structure (SMILES)	Potency
COc1ccccc1CN(Cc1cc2c(C)ccc(C)c2[nH]c1=O)Cc1nnnn1Cc1ccco1	inconclusive: 22.4 µM [inhibitor, single point]
O=C(Cc1ccccc1)Nc1ccc2c(c1)CCC2	inconclusive: 35.5 µM [inhibitor, single point]
Cc1c(C(=O)N2CCOCC2)oc2c1-c1nn(CC(=O)NCc3ccccc3)cc1CC2	inactive
CCn1ncc(C2=NOC(C(=O)Nc3cccnc3)C2)c1C (configuration not stated)	inactive
Cc1ccc(CN2C(=O)C3(SCC(=O)N3c3ccc(C)c(C)c3)c3ccccc32)cc1 (configuration not stated)	inconclusive: 25.1 µM [inhibitor, single point]
O=C(c1ccccc1)N1CCC(c2nc(-c3ccc(S(=O)(=O)NCC4CCCO4)cc3)no2)CC1 (configuration not stated)	inactive
COC(=O)C1=C(c2ccccc2)c2ccccc2S(=O)(=O)N1CC(=O)Nc1cc(C)ccc1C	inconclusive: 22.4 µM [inhibitor, single point]
CCOC(=O)Cn1nc(N2CCN(c3ccc(F)cc3)CC2)ccc1=O	inactive
CCOC(=O)c1cccc(NC(=O)CCc2c(C)nc3c4cccnc4nn3c2C)c1	inactive
CCOC(=O)c1cc2c(ccn2C)n1CC(=O)N1CCC(Cc2ccccc2)CC1	inconclusive: 0.116 µM [inhibitor, full curve, poor fit]
COc1nc(NC2CCCCC2)nc(N2CCCCCC2)n1	inconclusive: 12.6 µM [inhibitor, single point]
CN(CC(=O)Nc1cccc(F)c1)CC(=O)N1CCc2ccccc21	inactive
O=C(NNc1ccccc1)C(CCO)C(=O)NNc1ccccc1	inconclusive: 31.6 µM [inhibitor, single point]
COCCNC(=S)Nc1cc(S(=O)(=O)N2CCOCC2)ccc1N1CCCCC1	inconclusive: 3.55 µM [inhibitor, single point]
COc1ccc(CC(=O)Nc2ccc(C(N)=O)cc2)cc1	inconclusive: 35.5 µM [activator, single point]
Cc1cc(C(=O)OCC(=O)Nc2nc(-c3ccccc3)cs2)c(C)o1	inconclusive: 6.31 µM [inhibitor, partial curve, poor fit]
CCCc1cc(NCCCO)n2c(nc3ccccc32)c1C#N	inconclusive: 35.5 µM [inhibitor, single point]
O=C(NCc1cccnc1)c1ccc(COc2ccc3c(c2)CCC3)o1	inconclusive: 8.2 µM [activator, partial curve, poor fit]
COCCNC(=O)C(=O)Nc1ccc2nc3n(c(=O)c2c1)CCCCC3	inconclusive: 1 µM [inhibitor, full curve, poor fit]
CN1CCN(c2ccc(NC(=O)N3CCc4ccccc43)cc2)CC1	inactive
COc1ccc(C(=O)Oc2c(Sc3ccc(C)cc3)c(C)nn2C(C)(C)C)c(OC)c1	inconclusive: 10 µM [inhibitor, partial curve, poor fit]

Another view of some results above:
Cc1c(C(=O)N2CCOCC2)oc2c1-c1nn(CC(=O)NCc3ccccc3)cc1CC2
  Potency: inactive
CCCc1cc(NCCCO)n2c(nc3ccccc32)c1C#N
  Potency: inconclusive: 35.5 µM [inhibitor, single point]
